Data reported in the supplement of paper PMC6078165.

System: Hs578T
Assay: relative JC-1 red fluorescence (viability) vs pre-drug, coculture with fibroblast (fraction); higher = more viable cancer cells
Settings: 100 µM
Method: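 JC-1 labelled TNBC cells cocultured 1:1 (1,500 cells each) with CellTrace Violet stained primary or stromal fibroblasts in 384-well plates in FluoroBrite medium, treated with one of 42 anticancer drugs at 0.1, 1, 10 or 100 uM. JC-1 red fluorescence (mitochondrial integrity in cancer cells only) was read by plate reader every 8 h for 72 h. Values are normalised to each well's pre-drug value. The stock of one drug was tenfold lower, so its dose labels may be too high.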

CS(=O)(=O)CCNCc1ccc(-c2ccc3ncnc(Nc4ccc(OCc5cccc(F)c5)c(Cl)c4)c3c2)o1 [Lapatinib]
Settings | relative JC-1 red fluorescence
8 h | 0.874
16 h | 0.8099
24 h | 0.8049
32 h | 0.792
40 h | 0.758
48 h | 0.729
56 h | 0.744
64 h | 0.704
72 h | 0.708

relative JC-1 red fluorescence
Settings | 8 h | 16 h | 24 h | 32 h | 40 h | 48 h | 56 h | 64 h | 72 h
coculture fibroblast: C12385 | 0.8407 | 0.743 | 0.734 | 0.657 | 0.614 | 0.587 | 0.56 | 0.546 | 0.536
coculture fibroblast: H6013 | 0.9033 | 0.8596 | 0.81878 | 0.787 | 0.7369 | 0.715 | 0.674 | 0.651 | 0.611
coculture fibroblast: H6019 | 0.827 | 0.761 | 0.76 | 0.684 | 0.658 | 0.631 | 0.609 | 0.591 | 0.562
coculture fibroblast: H6076 | 0.945 | 0.9 | 0.903 | 0.91 | 0.893 | 0.908 | 0.874 | 0.87 | 0.859
coculture fibroblast: H6231 | 0.922 | 0.866 | 0.858 | 0.826 | 0.786 | 0.784 | 0.753 | 0.728 | 0.713
coculture fibroblast: HADF | 0.97 | 0.791 | 0.951 | 0.922 | 0.952 | 0.922 | 0.88 | 0.8573 | 0.8126
coculture fibroblast: HCFa | 0.864 | 0.823 | 0.781 | 0.7385 | 0.684 | 0.659 | 0.626 | 0.6115 | 0.57596
coculture fibroblast: HCPF | 0.938 | 0.849 | 0.816 | 0.78415 | 0.723 | 0.707 | 0.694 | 0.652 | 0.627
coculture fibroblast: HHSteC | 0.897 | 0.814 | 0.769 | 0.735 | 0.679 | 0.654 | 0.62 | 0.6016 | 0.573
coculture fibroblast: HMF | 0.841 | 0.842 | 0.773 | 0.759 | 0.78 | 0.759 | 0.764 | 0.686 | 0.717
coculture fibroblast: HPFa | 0.967 | 0.89842 | 0.861 | 0.81 | 0.774 | 0.743 | 0.702 | 0.675 | 0.625
coculture fibroblast: HUF | 0.921 | 0.828 | 0.797 | 0.698 | 0.641 | 0.606 | 0.572 | 0.56 | 0.539
coculture fibroblast: Hs27A | 0.882 | 0.957 | 0.897 | 0.891 | 0.907 | 0.844 | 0.756 | 0.7957 | 0.769
coculture fibroblast: Hs343T | 0.953 | 0.904 | 0.901 | 0.895 | 0.842 | 0.823 | 0.794 | 0.748 | 0.736
coculture fibroblast: WS1 | 0.782 | 0.753 | 0.741 | 0.662 | 0.622 | 0.614 | 0.589 | 0.578 | 0.566

Values are relative to the signal before dosing, not to a vehicle control; the signal also falls without drug.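 Labels refer to human fibroblasts, largely primary: uterine (C12385, HUF), lung (H6013), bone (Hs27A), adrenal (HADF), skin (WS1), plus mammary HMF and breast cancer-associated Hs343T. Cancer lines are basal-like or mesenchymal-like triple-negative breast cancer. The paper counts as hits responses shifting over 3x the replicate standard deviation. The tissue of the other fibroblasts is not given here.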
